Laboratory results: PubChem BioAssay AID651664 (NMMLSC, 2012)
Hit rate of the full screen: of about 1,800 compounds, fewer than 10 were called active.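 The calls were made as follows: active = inhibition of granule release above a set limit; inactive = the rest.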 Some of the results follow.

Assay: LAMP-1 surface externalization blockers in TALL-104 cells – cell-based, flow cytometry, validation set (AID 651664)
Conditions: TALL-104 LAMP-1 externalization, at 15.2 µM, stronger effect = higher value, stimulated with thapsigargin and PMA

SMILES | inhibition
Cc1ccc2c(CSc3nc4nc(C)cc(C)n4n3)cc(=O)oc2c1 | inactive: 1%
CCCC(=O)n1nc(-c2ccc(Cl)cc2)nc1SC | inactive: 0.7%
O=C(NCCCN1CCOCC1)C1CC(=O)N(C2CCCCC2)C1 (stereo not drawn) | inactive: 0.2%
CNc1ncc(C(=O)C(C)(C)C)s1 | inactive: -1%
CN=C(NC)SC1CC(=O)N(c2ccccc2)C1=O (stereo not drawn) | inactive: 3.9%
CC(C)(C)N(NC(=O)Nc1ccccc1)C(=O)c1ccccc1Cl | inactive: 1.5%
COc1ccc(NS(=O)(=O)c2ccc(Oc3ncccn3)cc2)cc1 | inactive: -2.9%
CN(C)c1ccc(-c2nnc(-c3ccc(S(=O)(=O)C(F)F)cc3)o2)cc1 | inactive: -2%
CC(=O)N(CCO)Cc1cc2cc(C)cc(C)c2[nH]c1=O | inactive: -1.6%
O=C(CC1(O)C(=O)N(CCc2ccccc2)c2ccccc21)c1ccco1 (stereo not drawn) | inactive: 5.6%
Cc1nccn1CC(O)Cn1c2ccccc2c2ccccc21 (stereo not drawn) | inactive: -3.3%
N=c1sccn1CC(=O)Nc1cccc2ccccc12 | inactive: -0.5%
CCC(C(=O)NCCN1CCN(C)CC1)n1c(C)c2cnn(-c3ccccc3)c(=O)c2c1C (stereo not drawn) | inactive: -0.3%
Cc1cc(C)cc(Nc2ccc(C(=O)O)cc2N)c1 | inactive: -1.6%
CC(C)OC(=O)c1cc(NC(=S)Nc2ccc([N+](=O)[O-])cc2)cc(C(=O)OC(C)C)c1 | inactive: -2.3%
O=C(NCCc1ccccc1)c1c(O)c2cccc3c2n(c1=O)CC3 | inactive: -2.7%
Cc1nc(CN2CCN(C(=O)c3ccc(Br)cc3)CC2)cs1 | inactive: -0.5%
Cn1c(-c2ccc(C=O)s2)nc2ccccc21 | inactive: -3.3%
Cc1ccc(OCCn2c(NC(=O)c3ccco3)nc3ccccc32)cc1 | inactive: 4.8%
CCCc1ccc(-c2csc(NC(=O)Cc3cccs3)n2)cc1 | inactive: -2.6%
O=S1(=O)C=C(SCCN2CCCCC2)c2ccccc21 | inactive: -1.9%
O=C(COc1cccc(Cl)c1)Nc1ccc(N2CCOCC2)cc1 | inactive: -0.7%
N#Cc1nc(COc2ccc(-c3ccccc3)cc2)oc1NCCCN1CCOCC1 | inactive: -0.6%
CC(C)(C)n1nc(-c2ccc(Cl)cc2)c2c(N)ncnc21 | inactive: 0.5%
CCOc1cc(/C=N/n2cnnc2)cc(Br)c1O | inactive: -0.7%

SMILES | inhibition
CCOC(=O)c1cc(NC(=O)N2CCCc3ccccc32)c(C)nc1C | inactive: 8%
CC(=O)C1=C(O)C(=O)N(c2ccc(S(N)(=O)=O)cc2)C1c1ccc([N+](=O)[O-])cc1 (stereo not drawn) | inactive: 3.6%
Cc1cc(NC(=O)c2c(F)cccc2Cl)n(-c2nc3ccccc3[nH]2)n1 | inactive: -2.1%
Cc1ccc(Cl)c2c1NC(=O)C2(O)CC(=O)c1ccc(F)cc1 (stereo not drawn) | inactive: -2.8%
CCN(C(=O)COC(=O)c1cnc(C)cn1)C1CCCCC1 | inactive: 1.4%
COc1cc(N)cc(NC(=O)c2ccncc2)c1 | inactive: -0.4%
O=C(O)c1ccc(-n2c(-c3cc(-c4ccco4)[nH]n3)n[nH]c2=S)cc1 | inactive: 1.2%
CC1CN(c2oc(Cc3cccc4ccccc34)nc2C#N)CC(C)O1 (stereo not drawn) | inactive: -2.4%
Cc1ccc(NC(=O)/C(=C\C=C\c2ccccc2)NC(=O)c2ccccc2)cc1 | inactive: -0.3%
O=[N+]([O-])c1ccc2c(c1)C(N1CCOCC1)/C(=C/COc1ccc(Cl)cc1Cl)O2 (stereo not drawn) | inactive: 0.9%
Cc1ccc2cc(C#N)c(N3CCN(C)CC3)nc2c1 | inactive: 1.2%
O=C(CCCC(=O)N(CC(=O)NC1CCCCC1)Cc1ccc2c(c1)OCO2)Nc1ccccn1 | inactive: -2.2%
Cc1cccc(C)c1NC(=O)C1(N(Cc2ccco2)C(=O)c2ccccn2)CCCC1 | inactive: -1.2%
CCCCn1c(-c2ccncc2)nc2c1c(=O)[nH]c(=O)n2CC(C)C | inactive: -2.8%
Cc1cccc(C)c1OCC(=O)NNC(=O)c1ccoc1C | inactive: 2.3%
CC(NC(=O)c1ccco1)C(=O)N1CCc2ccccc2C1 (stereo not drawn) | inactive: 1.3%
Nc1nnc(SCc2ccc(Cl)cc2)s1 | inactive: 7.1%
CC(C)(C)NC(=O)C1Cc2ccccc2CN1C(=O)Nc1cccc(Cl)c1 (stereo not drawn) | inactive: 3.6%
O=C(COc1ncnc2ccccc12)c1ccc2c(c1)OCCO2 | inactive: 3.7%
O=C1NC2(NN1c1ccccc1)C1CC3CC(C1)CC2C3 (stereo not drawn) | inactive: -2.4%
Cc1ccc(C(=O)c2nocc2C(=O)c2cccs2)cc1 | inactive: -1.8%
COc1ccccc1-c1c(C)oc2c(CN3CCN(CCO)CC3)c(O)ccc2c1=O | inactive: 0.3%
COc1cccc(C(C(=O)NCc2ccco2)N(Cc2ccco2)C(=O)Cn2nnc3ccccc32)c1 (stereo not drawn) | inactive: -3.7%
CN(C)/C=N/C(=S)Nc1ccc(F)cc1 | inactive: 1.1%
Cc1ccc(NC(=O)CSC(N)=O)cc1Cl | inactive: -2.2%

Four entries from above, set out differently:
SMILES	inhibition
O=C1NC2(NN1c1ccccc1)C1CC3CC(C1)CC2C3 (stereo not drawn)	inactive: -2.4%
Cc1ccc(C(=O)c2nocc2C(=O)c2cccs2)cc1	inactive: -1.8%
COc1ccccc1-c1c(C)oc2c(CN3CCN(CCO)CC3)c(O)ccc2c1=O	inactive: 0.3%
COc1cccc(C(C(=O)NCc2ccco2)N(Cc2ccco2)C(=O)Cn2nnc3ccccc32)c1 (stereo not drawn)	inactive: -3.7%

Following part:

SMILES | inhibition
Cc1ccc(S(=O)(=O)Nc2ccc(S(=O)(=O)N3CCCC3)cc2)cc1 | inactive: -3.4%
O=C(CC1SC(=Nc2ccccc2)N(CCCCO)C1=O)NCc1ccccc1 (stereo not drawn) | inactive: -4.1%
O=C(N1CCN(Cc2ccccc2)CC1)C12CC3CC(CC(C3)C1)C2 | inactive: 0.3%
Cc1c(C(=O)N2CCCC2)sc(NC(=O)c2ccc(Cl)cc2)c1C#N | inactive: 2.2%
C=CCN1C(=O)C(O)(CC(=O)c2ccc(N)cc2)c2ccccc21 (stereo not drawn) | inactive: -0.3%
Cc1ccc2c(CC(=O)O)coc2c1 | inactive: 1.8%
CCOc1ccccc1N1CCN(C(=O)C(Sc2ccccc2)c2ccccc2)CC1 (stereo not drawn) | inactive: 0.3%
Cc1ccc(-c2csc(NC(=O)Cc3cccs3)n2)cc1C | inactive: -2.7%
CCCS(=O)(=O)N1CCCC(C(=O)NCCN(Cc2ccccc2)C(C)C)C1 (stereo not drawn) | inactive: -0.7%
CN1C(=O)C2(C(C#N)=C(N)N(c3ccc(Cl)cc3)C3=C2C(=O)CC(C)(C)C3)c2ccccc21 (stereo not drawn) | inactive: 3%
CCC(C)NC(=O)N[C@@H](Cc1ccccc1)C(=O)O (stereo partly drawn) | inactive: -4.3%
Cc1ccc(C(=O)CCNc2cccc(Br)c2)o1 | inactive: 0.9%
CCC(C)NC(=O)Cn1nc([N+](=O)[O-])c(Cl)c1C (stereo not drawn) | inactive: 2.6%
O=c1c2cnn(-c3ccccc3)c2nc(-c2cccs2)n1-c1ccc(Cl)cc1 | inactive: -2.5%
C=CCn1c(SCc2nc3ccccc3c(=O)[nH]2)nc2ccccc2c1=O | inactive: 1.4%
O=C(CSc1nnc(-c2ccncc2)n1Cc1ccco1)N1c2ccccc2Sc2ccc(Cl)cc21 | inactive: 1.7%
COc1cc2c(cc1OC)C(=O)CCS2 | inactive: -3.4%
Cc1snc(S(=O)(=O)/C(C#N)=N/Nc2cccc(C(F)(F)F)c2)c1C#N | inactive: 5.6%
CC1(C)OC(=O)C(=NNc2ccc(O)cc2)C(=O)O1 | inactive: -0.3%
Cc1sc2nc(CN3CCOCC3)nc(N3CCOCC3)c2c1C | inactive: -1.2%
CCOC(=O)CNC(=O)c1sc2nc(C)cc(C)c2c1N | inactive: -1.8%
COc1ccc(N2CCN(C(=O)CN(c3ccccc3)S(C)(=O)=O)CC2)cc1 | inactive: 0.6%
O=c1cc(-c2ccc(F)cc2)oc2ccccc12 | inactive: -1.4%
CCOC(=O)CNC(=O)c1ccccc1 | inactive: 0.6%
Cc1ccc(-c2csc(C(C#N)=C3CCCC3)n2)cc1 | inactive: -2.1%

SMILES | inhibition
Cc1oc(/C=N/NC(=O)CN(c2ccccc2Br)S(C)(=O)=O)cc1Br | inactive: -0.6%
O=c1[nH]c2ccc(Cl)cc2c(-c2ccccc2)c1SC(=S)N1CCOCC1 | inactive: 2.4%
CCOC(=O)N1CCC(NC(=O)CCC(=O)N2CCOc3ccc(C)cc32)CC1 | inactive: -0.5%
COc1cc(CNCCN2CCOCC2)ccc1OCc1ccc(Cl)cc1Cl | inactive: 3.4%
O=C(O)CSc1ncnc2c1oc1ccccc12 | inactive: 1.1%
CCSc1nnc(NC(=O)NC(CC)(C(F)(F)F)C(F)(F)F)s1 | inactive: 6.9%
Oc1ccccc1CNc1ccc(Br)cn1 | inactive: -2.1%
COc1cccc(N2CCN(CC(=O)c3c[nH]c4ccc(OC)cc34)CC2C)c1 (stereo not drawn) | inactive: -2.4%
Cc1cc(-n2[nH]c(C)c(C)c2=O)nc(-c2ccccc2O)n1 | inactive: 2.8%
Nc1nc(CSc2nc3ccccc3s2)nc(N2CCCCC2)n1 | inactive: 3.2%
COc1cccc2c(=O)c(C/C=C(/C)Cl)c(C)[nH]c12 | inactive: 1.9%
Cc1ccc(OCCN2CCN(C(=O)CCC(=O)Nc3nnc(C(C)C)s3)CC2)cc1 | inactive: 1.7%
O=C(c1ccccc1)N1CCC(c2nc(-c3ccc(S(=O)(=O)N4CCOCC4)cc3)no2)CC1 | inactive: 0.2%
O=C(Cc1ccccc1)N/N=C/c1cccs1 | inactive: 2.6%
CNC(=S)N1CCN(c2c(F)cc3c(=O)c(C(=O)O)cn(C4CC4)c3c2OC)CC1C (stereo not drawn) | inactive: 1%
CCOC(=O)N1CCN(S(=O)(=O)c2cc(Br)cnc2N)CC1 | inactive: 1.8%
CCCCN(CCCC)C(=S)N/N=C/c1c(C)[nH]n(-c2ccccc2)c1=O | inactive: -0.4%
CS(=O)(=O)NCC(c1cccnc1)N1CCN(c2ccc(F)cc2)CC1 (stereo not drawn) | inactive: 0.4%
c1ccc(CSc2ncnc3c2sc2nc(N4CCOCC4)c4c(c23)CCCC4)cc1 | inactive: -3.3%
CCCCOc1ccccc1P(=O)(O)CP(=O)(c1ccccc1)c1ccccc1 | inactive: -3.4%
COc1ccc(CN2CCOCC2)cc1 | inactive: 1.5%
Cc1ccc(CNC(=O)c2cccc(S(C)(=O)=O)c2)cc1 | inactive: -2.2%
CCOC(=O)c1ccc(Oc2nc(SC)nc(N(C)C)n2)cc1 | inactive: 1.7%
